About 3,700 (7%) of roughly 53,000 sequences were called active.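 How the source made its calls: active means gene knockdowns whose robust z-score for IL-1 alpha signal is at least 2 or at most -2, so actives lie on both sides; inactive means the rest.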 The list shows a part of the results.
Assay: Components of the Cytosolic LPS Sensing Pathway: Gene Identification via Genome-wide siRNA Screen;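 further: robust z of the log signal after scaling to non-targeting control siRNA wells of the plate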
Conditions: RAW264.7 macrophages, IL-1a HTRF, actives lie on both sides, screened at 100 nM (by protocol), cells primed 5 h with Pam3CSK4 first
Method in brief: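 Cells (RAW264.7, 1×10^4 per well) were transfected with siRNA at 100 nM and cultured 48h at 37 degrees C. Pam3CSK4 was added for 5 hours; LipidA transfection followed for 24 hour. IL-1a was then measured by HTRF.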

z-score, inactive:
GGUUAAAAGAGGAGAUGUUTT against Ttc1 -1.33, GCUACAUAGCCCUGAUUGCTT against Foxs1 -0.689, GGCUUUUCAAUAUAGUUCCTT against Reg3a 0.237, CGGUGAUAACUUCAAGACGTT against Rbp2 -0.192, GCCAGUUCACCUGAUCUUATT against 2610507B11Rik 0.355, GCGACUGACCUUCAAACUGTT against Piwil4 0.193, GGUUCCACAGUGGCAAAUGTT against Vmn1r202 0.957, GGACCUUGACGUACAUCAATT against Prelid3a 1.29, GGAGAUUGUCAACAAAUGATT against Slc25a16 -1.4, GGGAAUGUGGCUUCACUUUTT against 2210409E12Rik 1.14, GGAACAAGGAAGUUAAGGATT against Olfr1044 0.251, GCCUAUAAGCCUAAUGAAATT against Rnf133 -0.664, GGUAAUAACCCUUAAUAAGTT against Akirin2 0.572, GGGAAGAGAAUGAUUAAAUTT against Zmat4 -0.933, GGUUGUGUUCAAGAAAGGGTT against Gcgr -0.225, CCGGAAAUUUUCUUUGCCCTT against Sec23ip -1.12, GCUGAUGUGAAUCCAUCCATT against Rbck1 -0.212, GGAGAUUUUCAUGUUAUCATT against Eral1 -1.39, GGUUCUUGAGCCUAAACAATT against Cd22 0.522, GGAGACCCUUGAUAGCCCATT against Celf6 -1.26, CGUGCAGUGUGCUUCACAATT against Smarcad1 -1.89, CGACAUUGCCUGGAACUUUTT against Gpx1 1.2, GGCCAUUGUGAAAUCCAGCTT against Chrnb3 0.00234, GCACCAGCUCUUUUGAUAUTT against L2hgdh 0.526, GGACCACACGUCAAAAUGATT against Pyurf -0.842, GGCAGGAUCACAGUCCUAGTT against Pcp4 0.432, GGAGCUCUAAAAUUGACUUTT against Zfp92 1.17, CCACCAAAAACAAAGGACCTT against BC061195 -1.08

z-score, active:
GGUGAGCUUGGUUUCUAAATT against Gdf15 2.28

— PubChem BioAssay AID1508600 (Functional Genomics Laboratory (NCATS/FGL), 2020)
